Source: paper doi:10.1101/2023.07.20.548338
These are yes or no findings as the source states them, for the method shown. In cells and extracts the contact can be indirect. Some entries that bind do so weakly or less than the wild type. Where a sequence is shown, tags or fusion partners need not be part of it.

By UniProt entry, the sequences of proteins in these tests, tags left out. Where a name states a change or a piece, a line headed by the entry shows the natural chain unless it says otherwise. Residues count along the entry.
UniProt D3Z7P3, 55-674: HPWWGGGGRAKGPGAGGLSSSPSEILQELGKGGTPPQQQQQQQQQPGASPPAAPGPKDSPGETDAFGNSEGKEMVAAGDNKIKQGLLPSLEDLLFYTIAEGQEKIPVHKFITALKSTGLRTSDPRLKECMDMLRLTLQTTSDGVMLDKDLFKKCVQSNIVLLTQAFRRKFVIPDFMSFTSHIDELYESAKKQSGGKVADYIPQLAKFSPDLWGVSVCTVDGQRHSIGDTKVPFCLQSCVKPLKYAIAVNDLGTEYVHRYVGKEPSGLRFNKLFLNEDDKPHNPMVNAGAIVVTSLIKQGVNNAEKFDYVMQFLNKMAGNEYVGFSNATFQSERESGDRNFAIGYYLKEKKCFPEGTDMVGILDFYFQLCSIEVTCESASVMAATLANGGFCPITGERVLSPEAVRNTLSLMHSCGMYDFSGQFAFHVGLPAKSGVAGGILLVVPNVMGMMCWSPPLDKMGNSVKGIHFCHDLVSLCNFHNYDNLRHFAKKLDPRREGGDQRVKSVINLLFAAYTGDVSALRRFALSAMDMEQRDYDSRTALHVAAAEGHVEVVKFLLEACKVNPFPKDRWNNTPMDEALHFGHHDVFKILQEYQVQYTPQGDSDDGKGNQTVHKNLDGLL
UniProt O94925, 55-669: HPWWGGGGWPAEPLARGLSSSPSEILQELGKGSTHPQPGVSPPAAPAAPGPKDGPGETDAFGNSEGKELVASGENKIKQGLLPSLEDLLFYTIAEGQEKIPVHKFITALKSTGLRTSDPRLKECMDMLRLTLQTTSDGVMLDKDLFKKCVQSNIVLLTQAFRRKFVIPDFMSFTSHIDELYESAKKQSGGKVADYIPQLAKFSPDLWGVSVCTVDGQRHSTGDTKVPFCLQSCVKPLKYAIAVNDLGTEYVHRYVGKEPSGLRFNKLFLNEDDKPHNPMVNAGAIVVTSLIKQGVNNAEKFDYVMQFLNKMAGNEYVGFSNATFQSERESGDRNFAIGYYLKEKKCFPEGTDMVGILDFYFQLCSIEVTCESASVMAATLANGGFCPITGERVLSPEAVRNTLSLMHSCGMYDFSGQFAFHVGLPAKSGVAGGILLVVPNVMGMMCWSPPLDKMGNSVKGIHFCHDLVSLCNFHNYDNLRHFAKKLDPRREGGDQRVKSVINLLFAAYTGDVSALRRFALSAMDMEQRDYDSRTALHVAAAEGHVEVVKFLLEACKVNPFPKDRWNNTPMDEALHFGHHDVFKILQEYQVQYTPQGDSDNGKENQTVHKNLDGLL

B1: PDZD8 (endogenous, MEFs) (protein, UniProt B9EJ80 1-1147)
chain: MGLLLLILASAVLGSFLTLLAQFLLLYRRQPEPRADEAARAGDGFRYLKPVPGLPLREYLYGGGAEELAACSSEAGASSTPTPDSPAPPTLETCYFLNATILFLFRELRDTALARRWVTKKIKVEFEELLQTKTAGRLLEGLSLRDVFLGDTVPFIKTIRLVRPVVASGTGEPDDPDGDALPATCPEELAFEAEVEYNGGFHLAIDVDLVFGKSAYLFVKLSRVVGRLRFVLTRVPFTHWFFSFVEDPLIDFEVRSQFEGRPMPQLTSIIVNQLKKIIKRKHTLPSYKIRFKPFFPYQALQGFEEDEELIHIQQWALTEGRLKVTLLECSRLFIFGSYDRETNVHCTLELSSGVWEEKQRSSIKTVELIKGNLQSVGLTLRLVQSTDGYAGHVIIETVAPNSPAAMADLQRGDRLIAIGGVKITSTLQVLKLIKQAGDRVLVYYQRPAGQSSQDSLGQLEESFLSSSCQAAYEEDAAGLSADTENRDLDSEFEDLASDVRVQTELKEETQPLSHSPKRTPTTLSIKPLGAISPVLNRKLISGIHPPPQKLPSKEGNKPSTLKTSETTEAAQVSKPQGPTFKPPVPPRPQGRVPLPPTDTSAQADPEAPEKPDKVLLPPPPADKPAEKQVKSVDQGEDVAAGKQSSAKQEGVKDLPSESSAPTKDSSDDPQMWESSEVLYRNKVGKWSRTRASCVFDIEACHRYLNIALWCRDPFKLGGLICLGHVSLKLEEVALGCLATSNMEYLTKFRLEPPTPKAMVTRTALRNLSMQKGFNDKFCFGDITIHFKYLKEGEPDHHIVPNVEKEKELHLVEEVSTLPKEEHFVGQMSLSENKHSFQDTQFQNPTWCDYCKKKVWTKAASQCMFCAYVCHKKCQEKCLAETPLCGATERRIDRTLKNLRLEGQDPLLGLPPRVEIEANKSVNKTTGLTRHIINTSSRLLNLRQVSKTRLSEPGTDLVEPSPKHTPNTSDNEGSDTEVCGSNSPSKRGNSAGIKLMRKEGGLDDSVFIAVKEIGRDLYRGLPTEERIQKLEFMLDKLQNEIDQELEHNNSLVREEKETNDTRKKSVLSAALAKSGERLQALTLLMIHYRAGIEDIETLENLSLDQHSKKMNKYADDTEEDLDSEISQLIDSQPFSNISDDLFGPSESV
B2: HA-tagged PDZD8, stably expressed in MEFs (protein, UniProt Q8NEN9 1-1154)
chain: MGLLLMILASAVLGSFLTLLAQFFLLYRRQPEPPADEAARAGEGFRYIKPVPGLLLREYLYGGGRDEEPSGAAPEGGATPTAAPETPAPPTRETCYFLNATILFLFRELRDTALTRRWVTKKIKVEFEELLQTKTAGRLLEGLSLRDVFLGETVPFIKTIRLVRPVVPSATGEPDGPEGEALPAACPEELAFEAEVEYNGGFHLAIDVDLVFGKSAYLFVKLSRVVGRLRLVFTRVPFTHWFFSFVEDPLIDFEVRSQFEGRPMPQLTSIIVNQLKKIIKRKHTLPNYKIRFKPFFPYQTLQGFEEDEEHIHIQQWALTEGRLKVTLLECSRLLIFGSYDREANVHCTLELSSSVWEEKQRSSIKTVELIKGNLQSVGLTLRLVQSTDGYAGHVIIETVAPNSPAAIADLQRGDRLIAIGGVKITSTLQVLKLIKQAGDRVLVYYERPVGQSNQGAVLQDNFGQLEENFLSSSCQSGYEEEAAGLTVDTESRELDSEFEDLASDVRAQNEFKDEAQSLSHSPKRVPTTLSIKPLGAISPVLNRKLAVGSHPLPPKIQSKDGNKPPPLKTSEITDPAQVSKPTQGSAFKPPVPPRPQAKVPLPSADAPNQAEPDVLVEKPEKVVPPPLVDKSAEKQAKNVDAIDDAAAPKQFLAKQEVAKDVTSETSCPTKDSSDDRQTWESSEILYRNKLGKWTRTRASCLFDIEACHRYLNIALWCRDPFKLGGLICLGHVSLKLEDVALGCLATSNTEYLSKLRLEAPSPKAIVTRTALRNLSMQKGFNDKFCYGDITIHFKYLKEGESDHHVVTNVEKEKEPHLVEEVSVLPKEEQFVGQMGLTENKHSFQDTQFQNPTWCDYCKKKVWTKAASQCMFCAYVCHKKCQEKCLAETSVCGATDRRIDRTLKNLRLEGQETLLGLPPRVDAEASKSVNKTTGLTRHIINTSSRLLNLRQVSKTRLSEPGTDLVEPSPKHTPNTSDNEGSDTEVCGPNSPSKRGNSTGIKLVRKEGGLDDSVFIAVKEIGRDLYRGLPTEERIQKLEFMLDKLQNEIDQELEHNNSLVREEKETTDTRKKSLLSAALAKSGERLQALTLLMIHYRAGIEDIETLESLSLDQHSKKISKYTDDTEEDLDNEISQLIDSQPFSSISDDLFGPSESV
B3: HA-tagged PDZD8-T527A, stably expressed in MEFs (protein, UniProt Q8NEN9 1-1154)
chain: MGLLLMILASAVLGSFLTLLAQFFLLYRRQPEPPADEAARAGEGFRYIKPVPGLLLREYLYGGGRDEEPSGAAPEGGATPTAAPETPAPPTRETCYFLNATILFLFRELRDTALTRRWVTKKIKVEFEELLQTKTAGRLLEGLSLRDVFLGETVPFIKTIRLVRPVVPSATGEPDGPEGEALPAACPEELAFEAEVEYNGGFHLAIDVDLVFGKSAYLFVKLSRVVGRLRLVFTRVPFTHWFFSFVEDPLIDFEVRSQFEGRPMPQLTSIIVNQLKKIIKRKHTLPNYKIRFKPFFPYQTLQGFEEDEEHIHIQQWALTEGRLKVTLLECSRLLIFGSYDREANVHCTLELSSSVWEEKQRSSIKTVELIKGNLQSVGLTLRLVQSTDGYAGHVIIETVAPNSPAAIADLQRGDRLIAIGGVKITSTLQVLKLIKQAGDRVLVYYERPVGQSNQGAVLQDNFGQLEENFLSSSCQSGYEEEAAGLTVDTESRELDSEFEDLASDVRAQNEFKDEAQSLSHSPKRVPATLSIKPLGAISPVLNRKLAVGSHPLPPKIQSKDGNKPPPLKTSEITDPAQVSKPTQGSAFKPPVPPRPQAKVPLPSADAPNQAEPDVLVEKPEKVVPPPLVDKSAEKQAKNVDAIDDAAAPKQFLAKQEVAKDVTSETSCPTKDSSDDRQTWESSEILYRNKLGKWTRTRASCLFDIEACHRYLNIALWCRDPFKLGGLICLGHVSLKLEDVALGCLATSNTEYLSKLRLEAPSPKAIVTRTALRNLSMQKGFNDKFCYGDITIHFKYLKEGESDHHVVTNVEKEKEPHLVEEVSVLPKEEQFVGQMGLTENKHSFQDTQFQNPTWCDYCKKKVWTKAASQCMFCAYVCHKKCQEKCLAETSVCGATDRRIDRTLKNLRLEGQETLLGLPPRVDAEASKSVNKTTGLTRHIINTSSRLLNLRQVSKTRLSEPGTDLVEPSPKHTPNTSDNEGSDTEVCGPNSPSKRGNSTGIKLVRKEGGLDDSVFIAVKEIGRDLYRGLPTEERIQKLEFMLDKLQNEIDQELEHNNSLVREEKETTDTRKKSLLSAALAKSGERLQALTLLMIHYRAGIEDIETLESLSLDQHSKKISKYTDDTEEDLDNEISQLIDSQPFSSISDDLFGPSESV
B4: PDZD8-GFP, expressed in MEFs (protein, UniProt Q8NEN9 1-1154)
chain: MGLLLMILASAVLGSFLTLLAQFFLLYRRQPEPPADEAARAGEGFRYIKPVPGLLLREYLYGGGRDEEPSGAAPEGGATPTAAPETPAPPTRETCYFLNATILFLFRELRDTALTRRWVTKKIKVEFEELLQTKTAGRLLEGLSLRDVFLGETVPFIKTIRLVRPVVPSATGEPDGPEGEALPAACPEELAFEAEVEYNGGFHLAIDVDLVFGKSAYLFVKLSRVVGRLRLVFTRVPFTHWFFSFVEDPLIDFEVRSQFEGRPMPQLTSIIVNQLKKIIKRKHTLPNYKIRFKPFFPYQTLQGFEEDEEHIHIQQWALTEGRLKVTLLECSRLLIFGSYDREANVHCTLELSSSVWEEKQRSSIKTVELIKGNLQSVGLTLRLVQSTDGYAGHVIIETVAPNSPAAIADLQRGDRLIAIGGVKITSTLQVLKLIKQAGDRVLVYYERPVGQSNQGAVLQDNFGQLEENFLSSSCQSGYEEEAAGLTVDTESRELDSEFEDLASDVRAQNEFKDEAQSLSHSPKRVPTTLSIKPLGAISPVLNRKLAVGSHPLPPKIQSKDGNKPPPLKTSEITDPAQVSKPTQGSAFKPPVPPRPQAKVPLPSADAPNQAEPDVLVEKPEKVVPPPLVDKSAEKQAKNVDAIDDAAAPKQFLAKQEVAKDVTSETSCPTKDSSDDRQTWESSEILYRNKLGKWTRTRASCLFDIEACHRYLNIALWCRDPFKLGGLICLGHVSLKLEDVALGCLATSNTEYLSKLRLEAPSPKAIVTRTALRNLSMQKGFNDKFCYGDITIHFKYLKEGESDHHVVTNVEKEKEPHLVEEVSVLPKEEQFVGQMGLTENKHSFQDTQFQNPTWCDYCKKKVWTKAASQCMFCAYVCHKKCQEKCLAETSVCGATDRRIDRTLKNLRLEGQETLLGLPPRVDAEASKSVNKTTGLTRHIINTSSRLLNLRQVSKTRLSEPGTDLVEPSPKHTPNTSDNEGSDTEVCGPNSPSKRGNSTGIKLVRKEGGLDDSVFIAVKEIGRDLYRGLPTEERIQKLEFMLDKLQNEIDQELEHNNSLVREEKETTDTRKKSLLSAALAKSGERLQALTLLMIHYRAGIEDIETLESLSLDQHSKKISKYTDDTEEDLDNEISQLIDSQPFSSISDDLFGPSESV
B5: PDZD8-T527A-GFP, expressed in MEFs (protein, UniProt Q8NEN9 1-1154)
chain: MGLLLMILASAVLGSFLTLLAQFFLLYRRQPEPPADEAARAGEGFRYIKPVPGLLLREYLYGGGRDEEPSGAAPEGGATPTAAPETPAPPTRETCYFLNATILFLFRELRDTALTRRWVTKKIKVEFEELLQTKTAGRLLEGLSLRDVFLGETVPFIKTIRLVRPVVPSATGEPDGPEGEALPAACPEELAFEAEVEYNGGFHLAIDVDLVFGKSAYLFVKLSRVVGRLRLVFTRVPFTHWFFSFVEDPLIDFEVRSQFEGRPMPQLTSIIVNQLKKIIKRKHTLPNYKIRFKPFFPYQTLQGFEEDEEHIHIQQWALTEGRLKVTLLECSRLLIFGSYDREANVHCTLELSSSVWEEKQRSSIKTVELIKGNLQSVGLTLRLVQSTDGYAGHVIIETVAPNSPAAIADLQRGDRLIAIGGVKITSTLQVLKLIKQAGDRVLVYYERPVGQSNQGAVLQDNFGQLEENFLSSSCQSGYEEEAAGLTVDTESRELDSEFEDLASDVRAQNEFKDEAQSLSHSPKRVPATLSIKPLGAISPVLNRKLAVGSHPLPPKIQSKDGNKPPPLKTSEITDPAQVSKPTQGSAFKPPVPPRPQAKVPLPSADAPNQAEPDVLVEKPEKVVPPPLVDKSAEKQAKNVDAIDDAAAPKQFLAKQEVAKDVTSETSCPTKDSSDDRQTWESSEILYRNKLGKWTRTRASCLFDIEACHRYLNIALWCRDPFKLGGLICLGHVSLKLEDVALGCLATSNTEYLSKLRLEAPSPKAIVTRTALRNLSMQKGFNDKFCYGDITIHFKYLKEGESDHHVVTNVEKEKEPHLVEEVSVLPKEEQFVGQMGLTENKHSFQDTQFQNPTWCDYCKKKVWTKAASQCMFCAYVCHKKCQEKCLAETSVCGATDRRIDRTLKNLRLEGQETLLGLPPRVDAEASKSVNKTTGLTRHIINTSSRLLNLRQVSKTRLSEPGTDLVEPSPKHTPNTSDNEGSDTEVCGPNSPSKRGNSTGIKLVRKEGGLDDSVFIAVKEIGRDLYRGLPTEERIQKLEFMLDKLQNEIDQELEHNNSLVREEKETTDTRKKSLLSAALAKSGERLQALTLLMIHYRAGIEDIETLESLSLDQHSKKISKYTDDTEEDLDNEISQLIDSQPFSSISDDLFGPSESV

Assays:
[1] = biological target: glutaminase 1 (GLS1; both KGA and GAC), endogenous in MEFs (mouse (endogenous in MEFs)) (UniProt D3Z7P3); test: co-IP
[2] = biological target: glutaminase 1 (GLS1; both KGA and GAC), endogenous in MEFs (mouse (endogenous in MEFs)) (UniProt D3Z7P3); test: proximity ligation
[3] = biological target: KGA-mCherry, expressed in MEFs (UniProt O94925); test: FRET or BRET

Row | Binder | binding [1] | binding [2] | binding [3]
1 | B1 | binds |  | 
2 | B2 | binds | binds | 
3 | B3 | binds | binds | 
4 | B4 |  |  | binds
5 | B5 |  |  | binds
